Data from PubChem BioAssay AID192 (DTP/NCI, 2004).
The list is a part of this screen's results and no random one: it gathers some chemical classes. Other doses and runs of a compound may be missing. T/C is the treated group as % of the vehicle group. Some doses have a count of surviving animals in place of a T/C: the source files T/C as zero there, which appears to mark a toxic dose or a test without result, not a measured value. Some survivor counts are full or nearly so, which does not show that the dose was tolerated: the source hardly ever lists a survival T/C far under the control, and the zero likely stands for such cases as well. Counts of survivors are from the toxicity check (mostly the fifth day) where no day follows; animals may have died later. Schedules are NCI's codes, taken here to give the interval after Q, in days (D) or hours (H), and the number of doses after X. Where survival is the endpoint, this PubChem deposit counts one and a half times the control or more as active, and values a quarter to a half above the control carry no call in these data; other NCI protocols may use other cut-offs. Some doses were run more than once; the results are listed from low to high. Some T/C values are marked as having no survivor count here; that says nothing about deaths at the dose. Some T/C values carry the count of animals alive at the toxicity check (mostly the fifth day); without a count or a note in brackets, all were alive then.

System: BDF1 mice, B16 melanoma ip, median survival T/C
Assay: NCI In Vivo Anticancer Drug Screen. Data for tumor model B16 Melanoma (intraperitoneal) in B6D2F1 (BDF1) mice
Settings: T/C endpoint: median survival time, higher T/C = longer survival
Outline: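 Read-out: survival or tumor size, given as treated/control ratio. Controls received vehicle only; animals bore transplantable tumors.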

[1] = dose: 25.0 mg/kg/injection, schedule: Q01DX009 (ip), vehicle: saline with Tween-80
[2] = dose: 50.0 mg/kg/injection, schedule: Q01DX009 (ip), vehicle: saline with Tween-80
[3] = dose: 4.0 mg/kg/injection, schedule: Q01DX009 (ip), vehicle: Klucel (hydroxypropylcellulose) (HPC)
[4] = dose: 8.0 mg/kg/injection, schedule: Q01DX009 (ip), vehicle: Klucel (hydroxypropylcellulose) (HPC)
[5] = dose: 32.0 mg/kg/injection, schedule: Q01DX009 (ip), vehicle: saline with Tween-80
[6] = dose: 64.0 mg/kg/injection, schedule: Q01DX009 (ip), vehicle: saline with Tween-80
[7] = dose: 12.5 mg/kg/injection, schedule: Q01DX009 (ip), vehicle: Klucel (hydroxypropylcellulose) (HPC)
[8] = dose: 25.0 mg/kg/injection, schedule: Q01DX009 (ip), vehicle: Klucel (hydroxypropylcellulose) (HPC)
[9] = dose: 50.0 mg/kg/injection, schedule: Q04DX003 (ip), vehicle: Klucel (hydroxypropylcellulose) (HPC)
[10] = dose: 100.0 mg/kg/injection, schedule: Q04DX003 (ip), vehicle: Klucel (hydroxypropylcellulose) (HPC)
[11] = dose: 200.0 mg/kg/injection, schedule: Q04DX003 (ip), vehicle: Klucel (hydroxypropylcellulose) (HPC)
[12] = dose: 400.0 mg/kg/injection, schedule: Q04DX003 (ip), vehicle: Klucel (hydroxypropylcellulose) (HPC)

## O=C1c2cc([N+](=O)[O-])cc([N+](=O)[O-])c2-c2c1cc([N+](=O)[O-])cc2[N+](=O)[O-]
dose: 12.5 mg/kg/injection, schedule: Q04DX003 (ip), vehicle: saline with Tween-80
  T/C: 97 % of control [survivor count not shown]
[1]
  T/C: 97 % of control [survivor count not shown]
dose: 25.0 mg/kg/injection, schedule: Q04DX003 (ip), vehicle: saline with Tween-80
  T/C: 102 % of control [survivor count not shown]
[2]
  T/C: 114 % of control [survivor count not shown]
dose: 50.0 mg/kg/injection, schedule: Q04DX003 (ip), vehicle: saline with Tween-80
  T/C: 97 % of control [survivor count not shown]

## COc1ccc(O)c2c(=O)c3c(OC)cc4c(c3oc12)[C@@H]1C=CO[C@@H]1O4
[3]
  T/C: 118 % of control
dose: 4.0 mg/kg/injection, schedule: Q01DX009 (ip), vehicle: saline with Tween-80, evaluated on day 45
  T/C: 164 % of control
dose: 4.0 mg/kg/injection, schedule: Q01DX009 (ip), vehicle: saline with Tween-80, evaluated on day 60
  T/C: 116 % of control
[4]
  T/C: 118 % of control
dose: 8.0 mg/kg/injection, schedule: Q01DX009 (ip), vehicle: saline with Tween-80, evaluated on day 45
  T/C: 145 % of control
dose: 8.0 mg/kg/injection, schedule: Q01DX009 (ip), vehicle: saline with Tween-80, evaluated on day 60
  T/C: 118 % of control
dose: 16.0 mg/kg/injection, schedule: Q01DX009 (ip), vehicle: Klucel (hydroxypropylcellulose) (HPC)
  T/C: 134 % of control [9 of 10 alive]
dose: 16.0 mg/kg/injection, schedule: Q01DX009 (ip), vehicle: saline with Tween-80, evaluated on day 45
  T/C: 152 % of control
dose: 16.0 mg/kg/injection, schedule: Q01DX009 (ip), vehicle: saline with Tween-80, evaluated on day 60
  T/C: 135 % of control
dose: 32.0 mg/kg/injection, schedule: Q01DX009 (ip), vehicle: Klucel (hydroxypropylcellulose) (HPC)
  T/C: 134 % of control
[5]
  T/C: 134 % of control
  survivor count: 6 of 6
dose: 64.0 mg/kg/injection, schedule: Q01DX009 (ip), vehicle: Klucel (hydroxypropylcellulose) (HPC)
  survivor count: 10 of 10
[6]
  T/C: 132 % of control
  survivor count: 5 of 6
dose: 128.0 mg/kg/injection, schedule: Q01DX009 (ip), vehicle: Klucel (hydroxypropylcellulose) (HPC)
  survivor count: 10 of 10
dose: 256.0 mg/kg/injection, schedule: Q01DX009 (ip), vehicle: Klucel (hydroxypropylcellulose) (HPC)
  survivor count: 4 of 10

## ClC1CSC1
dose: 25.0 mg/kg/injection, schedule: Q01DX009 (ip), vehicle: suspension in saline
  T/C: 110 % of control
dose: 50.0 mg/kg/injection, schedule: Q01DX009 (ip), vehicle: suspension in saline
  T/C: 117 % of control
dose: 100.0 mg/kg/injection, schedule: Q01DX009 (ip), vehicle: suspension in saline
  T/C: 110 % of control
dose: 200.0 mg/kg/injection, schedule: Q01DX009 (ip), vehicle: suspension in saline
  T/C: 132 % of control

## NC(Cc1ccc(N(CCF)CCCl)cc1)C(=O)O (stereo not given)
dose: 6.25 mg/kg/injection, schedule: Q01DX009 (ip), vehicle: Klucel (hydroxypropylcellulose) (HPC)
  T/C: 122 % of control
[4]
  T/C: 127 % of control
dose: 12.0 mg/kg/injection, schedule: Q01DX009 (ip), vehicle: Klucel (hydroxypropylcellulose) (HPC)
  T/C: 138 % of control
[7]
  T/C: 162 % of control
dose: 17.0 mg/kg/injection, schedule: Q01DX009 (ip), vehicle: Klucel (hydroxypropylcellulose) (HPC)
  T/C: 157 % of control
dose: 18.0 mg/kg/injection, schedule: Q01DX009 (ip), vehicle: Klucel (hydroxypropylcellulose) (HPC)
  T/C: 147 % of control
[8]
  T/C: 165 and 173 % of control
dose: 37.0 mg/kg/injection, schedule: Q01DX009 (ip), vehicle: Klucel (hydroxypropylcellulose) (HPC)
  T/C: 121 % of control

## CC[C@H](C)[C@@H]1NC(=O)/C(=C(\C)O)C1=O
dose: 12.5 mg/kg/injection, schedule: Q01DX009 (ip), vehicle: saline
  T/C: 97 % of control
dose: 12.5 mg/kg/injection, schedule: Q04DX003 (ip), vehicle: saline
  T/C: 107 % of control
dose: 25.0 mg/kg/injection, schedule: Q01DX009 (ip), vehicle: saline
  T/C: 94 % of control
dose: 25.0 mg/kg/injection, schedule: Q04DX003 (ip), vehicle: saline
  T/C: 96 % of control
dose: 50.0 mg/kg/injection, schedule: Q01DX009 (ip), vehicle: saline
  T/C: 100 % of control
dose: 50.0 mg/kg/injection, schedule: Q04DX003 (ip), vehicle: saline
  T/C: 103 % of control [6 of 8 alive]
dose: 100.0 mg/kg/injection, schedule: Q04DX003 (ip), vehicle: saline
  survivor count: 3 of 8
dose: 200.0 mg/kg/injection, schedule: Q04DX003 (ip), vehicle: saline
  survivor count: 0 of 8

## CCCCOP(OCCCC)OCCCC
dose: 100.0 mg/kg/injection, schedule: Q04DX003 (ip), vehicle: saline with Tween-80
  T/C: 93 % of control
dose: 200.0 mg/kg/injection, schedule: Q04DX003 (ip), vehicle: saline with Tween-80
  T/C: 86 % of control
dose: 400.0 mg/kg/injection, schedule: Q04DX003 (ip), vehicle: saline with Tween-80
  survivor count: 9 of 10

## CC1(C)CN1P(=O)(Nc1ccccn1)N1CC1(C)C (stereo not given)
[1]
  T/C: 102 % of control
[2]
  T/C: 94 % of control
dose: 100.0 mg/kg/injection, schedule: Q01DX009 (ip), vehicle: saline with Tween-80
  T/C: 105 % of control
dose: 200.0 mg/kg/injection, schedule: Q01DX009 (ip), vehicle: saline with Tween-80
  T/C: 149 % of control

## Cc1cc(N(CCCl)CCCl)ccc1N
dose: 0.13 mg/kg/injection, schedule: Q01DX009 (ip), vehicle: Klucel (hydroxypropylcellulose) (HPC)
  T/C: 107 % of control
dose: 0.25 mg/kg/injection, schedule: Q01DX009 (ip), vehicle: Klucel (hydroxypropylcellulose) (HPC)
  T/C: 108 % of control
dose: 0.5 mg/kg/injection, schedule: Q01DX009 (ip), vehicle: Klucel (hydroxypropylcellulose) (HPC)
  T/C: 119 % of control
dose: 1.0 mg/kg/injection, schedule: Q01DX009 (ip), vehicle: Klucel (hydroxypropylcellulose) (HPC)
  T/C: 128 % of control
dose: 2.0 mg/kg/injection, schedule: Q01DX009 (ip), vehicle: Klucel (hydroxypropylcellulose) (HPC)
  T/C: 142 % of control
[3]
  survivor count: 10 of 10

## C[As](C)SC1OC(CO)C(O)C(O)C1O (stereo not given)
[7]
  T/C: 98 % of control [8 of 10 alive]
[8]
  T/C: 109 % of control
dose: 50.0 mg/kg/injection, schedule: Q01DX009 (ip), vehicle: Klucel (hydroxypropylcellulose) (HPC)
  survivor count: 4 of 10

## F[As-](F)(F)(F)(F)F.c1ccc([As+](c2ccccc2)(c2ccccc2)c2ccccc2)cc1
[9]
  T/C: 92 % of control [9 of 10 alive]
[10]
  T/C: 127 % of control
[11]
  T/C: 123 % of control [9 of 10 alive]
[12]
  T/C: 123 % of control [8 of 10 alive]

## O=[N+]([O-])c1ccc(Nc2ccc(Oc3ccc([N+](=O)[O-])cc3[N+](=O)[O-])cc2)c([N+](=O)[O-])c1
dose: 12.5 mg/kg/injection, schedule: Q04DX003 (ip), vehicle: Klucel (hydroxypropylcellulose) (HPC)
  T/C: 90 % of control
dose: 25.0 mg/kg/injection, schedule: Q04DX003 (ip), vehicle: Klucel (hydroxypropylcellulose) (HPC)
  T/C: 93 % of control [9 of 10 alive]
[9]
  T/C: 100 % of control
[10]
  survivor count: 10 of 10
[11]
  survivor count: 9 of 10
[12]
  survivor count: 10 of 10

## CC1CCN(CCCOC(=O)C(O)(c2ccccc2)c2ccccc2)CCN1C (stereo not given)
dose: 1.56 mg/kg/injection, schedule: Q01DX009 (ip), vehicle: saline
  T/C: 118 % of control
dose: 3.12 mg/kg/injection, schedule: Q01DX009 (ip), vehicle: saline
  T/C: 102 % of control
